Assay results reported in patent publication US20100239652A1, “IMMUNOLIPOSOMES FOR TREATMENT OF CANCER” (UNIVERSITATSSPITAL BASEL, priority 2008, published 2010).
Converted amounts (≈) assume the structure as drawn.

System: MDA-MB-231
Assay: Cytotoxicity study, MTT staining
Format: cell-based, human
Conditions: parental wild-type, lacking mdr; 2 h treatment, MTT after 3 days
Experimental: Specific cytotoxicity of EGFR-targeted immunoliposomes containing doxorubicin was evaluated in target cells plated at a density of 8,000 cells per well in 96-well plates and allowed to grow overnight. Immunoliposomes or control treatments were applied for 2 h at 37° C., followed by washing with PBS and re-adding growth media. Cells were further incubated at 37 DC for 3 days and analyzed for cell viability using 3-(4,5-dimethylthiazol-2-yl)-2,5-diphenyl tetrazolium bromide (MTT) staining (41). For the cytotoxicity studies using the efflux pump inhibitor verapamil, this compound was added to the media at a concentration of 100 μM during the complete experiment.

Q: COc1cccc2c1C(=O)c1c(O)c3c(c(O)c1C2=O)C[C@@](O)(C(=O)CO)C[C@@H]3O[C@H]1C[C@H](N)[C@H](O)[C@H](C)O1 [free dox, doxorubicin] was tested. Which IC50 did it give?
A: 0.6 µg/mL (≈ 1.1 µM)
